# Measurements: PubChem BioAssay AID504467 (National Center for Advancing Translational Sciences (NCATS), 2011)
# Hit rate of the full screen: of about 330,000 compounds, about 7,700 (2.3%) were called active. Inconclusive means that the source gave no clear call. Such entries were picked first, then a sample of the others. Calls follow the shape of the dose curve; as a rule, active = well fitted inhibition curve with a large enough effect; inconclusive = small, poorly fitted or top-dose-only effect, or effect the other way; inactive = flat fitted curve, though single readings scatter. Potencies beside an inconclusive call are fits to weak or partial responses and may not hold up.
# Test: qHTS screen for small molecules that inhibit ELG1-dependent DNA repair in human embryonic kidney (HEK293T) cells expressing luciferase-tagged ELG1; also: nearly all actives have a fitted effect of over 55% in size
# Settings: HEK293T ELG1-luciferase reporter, luminescence, 16 h, DNA damage induced by 5-fluorouridine; activity change, negative = inhibition: at 46.1 µM (top of the series)
# Outline: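 In this reporter screen, reduction of luminescence relative to DMSO vehicle indicated activity. Compounds and 5-fluorouridine were added together to 2,000 cells per well, incubated for 16 hr at 37 °C, then developed with ONE-Glo.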
# % is scaled to controls: 0 for no effect and ±100 for the full control effect; potency is read from the fitted curve at half-maximal effect.
SMILES,Potency,"activity change, negative = inhibition"
CC(=O)c1ccc(-n2cc(-c3ccc(C(C)(C)C)cc3)[n+]3c2SCCC3)cc1,active: 7.3 µM,–
Nc1nc(Nc2ccccc2)nc(NCc2ccccc2)c1[N+](=O)[O-],active: 20.6 µM,–
Cn1c(CCNC(=O)c2ccccc2)nc2cc(NC(=O)c3ccco3)ccc21,"inconclusive: 16.4 µM [activator, partial curve]",–
CC1=CCC2C(=O)N(c3cccc(C(=O)Nc4ccccc4Cl)c3)C(=O)C2C1 (stereo not drawn),–,inactive: 0.286%
O=C(CSC1=NCCS1)N1CCc2ccccc21,"inconclusive: 5.8 µM [activator, partial curve]",–
O=C(/C=C/c1ccccc1)NC(NC(=S)Nc1cccc(O)c1)C(Cl)(Cl)Cl (stereo not drawn),"inconclusive: 29.1 µM [inhibitor, single point]",–
COc1ccc(/C=C/C(=O)c2c(O)cc(C)oc2=O)c(OC)c1,"inconclusive: 23.1 µM [activator, partial curve]",–
CCN1C(=O)[C@H]2[C@H]3CN=C(SCC(=O)c4ccccc4)N3[C@@](C)(C(=O)OC)[C@H]2C1=O,"inconclusive: 29.1 µM [activator, single point]",–
O=C1c2ccccc2NC(c2ccc3c(c2)OCCO3)N1c1ccc2c(c1)OCCO2 (stereo not drawn),"inconclusive: 1.3 µM [activator, full curve]",–
CC(C)CN(CC(C)C)C(=S)NC1CCCCC1,–,inactive: 0.956%
Cc1ccc(COc2ccsc2C(=O)NNC(N)=S)cc1,–,inactive: -1.9%
COc1cc(OC)c(OC)cc1CN(C)C(c1ccccc1)c1nnnn1-c1ccccc1C (stereo not drawn),"inconclusive: 23.1 µM [inhibitor, single point]",–
Cc1nc2ccccc2c(=O)n1NC(=O)c1ccccc1[N+](=O)[O-],"inconclusive: 29.1 µM [activator, single point]",–
Cc1nc(N2CCN(C(=O)c3ccco3)CC2)c2oc3ccccc3c2n1,"inconclusive: 29.1 µM [inhibitor, single point]",–
O=S(=O)(Nc1nc2ccccc2s1)c1ccc(Cl)nc1,"inconclusive: 23.1 µM [inhibitor, single point]",–
Oc1c(C(c2ccccn2)N2CCCCC2)cc(Cl)c2cccnc12 (stereo not drawn),"inconclusive: 6.51 µM [inhibitor, full curve, poor fit]",–
O=C(NCC(c1cccs1)N1CCOCC1)C1CCN(S(=O)(=O)c2ccccc2C(F)(F)F)CC1 (stereo not drawn),–,inactive: -19.7%
OC(COc1ccc(Cl)cc1)CN1CCC(Cc2ccccc2)CC1 (stereo not drawn),–,inactive: 4.79%
Cc1ccc(NC(=O)COC(=O)C2CCC2)cc1S(=O)(=O)N1CCCCC1,–,inactive: 2.57%
Cc1nc(-c2ccc(F)cc2)c(CC(=O)Nc2ccc(C)c(S(=O)(=O)N3CCOCC3)c2)s1,"inconclusive: 23.1 µM [inhibitor, single point]",–
CC(C)=NOCc1ccc(-c2cn([C@@H]3COC[C@H]3O)nn2)cc1,"inconclusive: 32.6 µM [activator, single point]",–
Clc1cccc(CSc2nccn2-c2ccccc2)c1,–,inactive: 8.12%
Cc1nc2nc(C)c(NS(=O)(=O)c3ccc(Cl)s3)c(=O)n2[nH]1,–,inactive: 8.72%
c1ccc(C2CC(c3ccccc3)C(c3ccccc3)N2)cc1 (stereo not drawn),–,inactive: 0.339%

# Reformatted with bars between the fields: entries from further up
SMILES | Potency | activity change, negative = inhibition
OC(COc1ccc(Cl)cc1)CN1CCC(Cc2ccccc2)CC1 (stereo not drawn) | – | inactive: 4.79%
Cc1ccc(NC(=O)COC(=O)C2CCC2)cc1S(=O)(=O)N1CCCCC1 | – | inactive: 2.57%
Cc1nc(-c2ccc(F)cc2)c(CC(=O)Nc2ccc(C)c(S(=O)(=O)N3CCOCC3)c2)s1 | inconclusive: 23.1 µM [inhibitor, single point] | –

# Remaining list, next part:

SMILES,Potency,"activity change, negative = inhibition"
Nc1nnc(Sc2ncccc2[N+](=O)[O-])s1,–,inactive: -14.7%
O=C1CN(C(=O)c2ccc(Br)o2)C(c2ccccc2)c2cc(F)ccc2N1 (stereo not drawn),active: 18.4 µM,–
COc1ccc(-c2nnc(-c3cc(OC)c(OC)c(OC)c3)o2)cc1OC,active: 23.1 µM,–
COc1ccc(NC(=O)CN(C)C(=O)c2cc(-c3ccncc3)nc3ccccc23)cc1,"inconclusive: 20.6 µM [inhibitor, single point]",–
Cc1cc(C)c(S(C)(=O)=O)c(Oc2cccc(C(F)(F)F)c2)n1,–,inactive: -2.6%
O=C(Nc1ccc([N+](=O)[O-])cc1Cl)c1cc(Cl)ccc1O,"inconclusive: 1.12 µM [activator, full curve, poor fit]",–
C=CCSc1n[nH]c(-c2ccc(OC)cc2)n1,"inconclusive: 2.91 µM [activator, partial curve]",–
CCCN1CCc2nc(SCC(=O)Nc3ccc(C)c(Cl)c3)[nH]c(=O)c2C1,"inconclusive: 32.6 µM [activator, partial curve, poor fit]",–
CC(Oc1ccc(Cl)cc1Cl)C(=O)NCCC1=CCCCC1 (stereo not drawn),–,inactive: 3.71%
CCN(CC(=O)NCc1ccc(F)cc1)C(=O)C1CCN(S(=O)(=O)c2ccc(C(C)C)cc2)CC1,–,inactive: -19.2%
CCCCC1=CC2=C(c3ccco3)C(=O)C(C)(OC(=O)c3ccc(OC)cc3)C(=O)C2=CN1CCCOC(C)C (stereo not drawn),–,inactive: -26.5%
CC(=O)N1CCc2ccc(NC(=O)c3c(-c4c(Cl)cccc4Cl)noc3C)cc21,"inconclusive: 29.1 µM [inhibitor, single point]",–
N#Cc1c(N)n[nH]c1-c1cc2c([nH]1)CCCC2,"inconclusive: 29.1 µM [inhibitor, single point]",–
CC(C)NC(=O)NC(=O)COC(=O)c1ncc(Cl)c(Cl)c1Cl,–,inactive: -0.954%
S=C(NC1CCCCC1)N1CCOCCOCCN(C(=S)NC2CCCCC2)CCOCCOCC1,active: 18.3 µM,–
CCN1CCN(S(=O)(=O)c2ccc(Cl)c(C(=O)NC3CC3)c2)CC1,"inconclusive: 1.46 µM [activator, partial curve, poor fit]",–
CCCOc1ccc(-c2nc(C#N)c(N3CCC(C(N)=O)CC3)o2)cc1,–,inactive: -12.9%
Oc1ccc(O)c(-c2cnns2)c1,"inconclusive: 10.3 µM [inhibitor, partial curve]",–
CCC(C)n1c(SCC(=O)NCCc2ccc(S(N)(=O)=O)cc2)nc2ccsc2c1=O (stereo not drawn),–,inactive: -4.07%
CCOc1ccc(Br)cc1C(=O)N/N=C/c1cccc(C)n1,"inconclusive: 16.4 µM [activator, partial curve, poor fit]",–
CCCCOc1ccc(C(=O)Nc2ccc3c(c2)OCO3)cc1,"inconclusive: 4.11 µM [activator, full curve]",–
Cc1nc(NC(=O)c2c(-c3ccccc3Cl)noc2C)sc1C,active: 2.91 µM,–
COc1cccc(Nc2nc(N)nc(-c3oc4ccccc4c3C)n2)c1,–,inactive: 0.157%
c1ccc(-c2csc3ncnc(N4CCOCC4)c23)cc1,"inconclusive: 18.3 µM [activator, partial curve, poor fit]",–
